According to paper PMC4872223:
These are yes or no findings as the source states them, for the method shown. Binding seen in cells or lysates may run through a third protein. Some binding calls cover weakened binding; strength is not graded here. Sequences can lack the tags named with a protein.

T1: MET18-cLUC (Arabidopsis) (UniProt Q0WVF8)
T1 sequence: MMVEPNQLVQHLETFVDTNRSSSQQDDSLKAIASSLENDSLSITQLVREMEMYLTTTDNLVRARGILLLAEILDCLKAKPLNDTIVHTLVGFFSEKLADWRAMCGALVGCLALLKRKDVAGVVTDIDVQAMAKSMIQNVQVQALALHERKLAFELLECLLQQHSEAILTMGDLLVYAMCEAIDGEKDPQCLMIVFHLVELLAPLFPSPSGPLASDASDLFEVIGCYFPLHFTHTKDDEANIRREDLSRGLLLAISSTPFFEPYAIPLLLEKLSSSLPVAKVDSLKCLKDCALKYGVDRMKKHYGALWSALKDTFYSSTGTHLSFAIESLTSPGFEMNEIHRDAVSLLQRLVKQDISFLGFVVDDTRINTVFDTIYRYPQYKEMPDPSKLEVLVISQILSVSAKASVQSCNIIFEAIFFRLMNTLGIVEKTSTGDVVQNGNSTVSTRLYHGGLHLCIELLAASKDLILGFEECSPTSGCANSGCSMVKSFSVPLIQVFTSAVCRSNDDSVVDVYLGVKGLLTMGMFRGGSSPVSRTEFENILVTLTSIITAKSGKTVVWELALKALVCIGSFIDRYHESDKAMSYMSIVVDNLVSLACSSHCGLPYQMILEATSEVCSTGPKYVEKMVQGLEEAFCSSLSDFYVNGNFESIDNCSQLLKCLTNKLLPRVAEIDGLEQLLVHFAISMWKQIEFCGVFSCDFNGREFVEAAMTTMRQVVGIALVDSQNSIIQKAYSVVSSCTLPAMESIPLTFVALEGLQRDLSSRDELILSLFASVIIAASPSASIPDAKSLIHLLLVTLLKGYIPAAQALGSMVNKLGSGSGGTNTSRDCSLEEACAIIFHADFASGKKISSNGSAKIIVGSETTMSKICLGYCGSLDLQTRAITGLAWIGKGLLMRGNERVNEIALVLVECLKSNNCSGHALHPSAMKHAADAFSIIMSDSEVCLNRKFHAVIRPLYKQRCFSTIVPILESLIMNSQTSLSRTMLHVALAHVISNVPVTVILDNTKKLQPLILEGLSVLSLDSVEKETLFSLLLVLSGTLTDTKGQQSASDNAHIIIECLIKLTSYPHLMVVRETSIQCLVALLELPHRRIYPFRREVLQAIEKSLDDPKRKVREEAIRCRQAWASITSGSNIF

B1: AE7-nLUC (protein, UniProt Q9C9G6 1-157)
chain: MVSGLINENPIIYPKKERRLRTDTSITDELTPEPIDQLEIFDHIRDIKDPEHPNTLEDLRVVTEDSVEVDDENSYVRVTFTPTVEHCSMATVIGLCVRVKLLRSLPSRYKIDIRVAPGSHATEDALNKQLNDKERVAAALENPNLVEMVDECLPSEE
B2: ROS1-nLUC (protein, UniProt Q9SJQ6 1-1393)
chain: MEKQRREESSFQQPPWIPQTPMKPFSPICPYTVEDQYHSSQLEERRFVGNKDMSGLDHLSFGDLLALANTASLIFSGQTPIPTRNTEVMQKGTEEVESLSSVSNNVAEQILKTPEKPKRKKHRPKVRREAKPKREPKPRAPRKSVVTDGQESKTPKRKYVRKKVEVSKDQDATPVESSAAVETSTRPKRLCRRVLDFEAENGENQTNGDIREAGEMESALQEKQLDSGNQELKDCLLSAPSTPKRKRSQGKRKGVQPKKNGSNLEEVDISMAQAAKRRQGPTCCDMNLSGIQYDEQCDYQKMHWLYSPNLQQGGMRYDAICSKVFSGQQHNYVSAFHATCYSSTSQLSANRVLTVEERREGIFQGRQESELNVLSDKIDTPIKKKTTGHARFRNLSSMNKLVEVPEHLTSGYCSKPQQNNKILVDTRVTVSKKKPTKSEKSQTKQKNLLPNLCRFPPSFTGLSPDELWKRRNSIETISELLRLLDINREHSETALVPYTMNSQIVLFGGGAGAIVPVTPVKKPRPRPKVDLDDETDRVWKLLLENINSEGVDGSDEQKAKWWEEERNVFRGRADSFIARMHLVQGDRRFTPWKGSVVDSVVGVFLTQNVSDHLSSSAFMSLASQFPVPFVPSSNFDAGTSSMPSIQITYLDSEETMSSPPDHNHSSVTLKNTQPDEEKDYVPSNETSRSSSEIAISAHESVDKTTDSKEYVDSDRKGSSVEVDKTDEKCRVLNLFPSEDSALTCQHSMVSDAPQNTERAGSSSEIDLEGEYRTSFMKLLQGVQVSLEDSNQVSPNMSPGDCSSEIKGFQSMKEPTKSSVDSSEPGCCSQQDGDVLSCQKPTLKEKGKKVLKEEKKAFDWDCLRREAQARAGIREKTRSTMDTVDWKAIRAADVKEVAETIKSRGMNHKLAERIQGFLDRLVNDHGSIDLEWLRDVPPDKAKEYLLSFNGLGLKSVECVRLLTLHHLAFPVDTNVGRIAVRLGWVPLQPLPESLQLHLLEMYPMLESIQKYLWPRLCKLDQKTLYELHYQMITFGKVFCTKSKPNCNACPMKGECRHFASAFASARLALPSTEKGMGTPDKNPLPLHLPEPFQREQGSEVVQHSEPAKKVTCCEPIIEEPASPEPETAEVSIADIEEAFFEDPEEIPTIRLNMDAFTSNLKKIMEHNKELQDGNMSSALVALTAETASLPMPKLKNISQLRTEHRVYELPDEHPLLAQLEKREPDDPCSYLLAIWTPGETADSIQPSVSTCIFQANGMLCDEETCFSCNSIKETRSQIVRGTILIPCRTAMRGSFPLNGTYFQVNEVFADHASSLNPINVPRELIWELPRRTVYFGTSVPTIFKGLSTEKIQACFWKGYVCVRGFDRKTRGPKPLIARLHFPASKLKGQQANLA
B3: ROS1 C1038S-nLUC (protein, UniProt Q9SJQ6 1-1393)
chain: MEKQRREESSFQQPPWIPQTPMKPFSPICPYTVEDQYHSSQLEERRFVGNKDMSGLDHLSFGDLLALANTASLIFSGQTPIPTRNTEVMQKGTEEVESLSSVSNNVAEQILKTPEKPKRKKHRPKVRREAKPKREPKPRAPRKSVVTDGQESKTPKRKYVRKKVEVSKDQDATPVESSAAVETSTRPKRLCRRVLDFEAENGENQTNGDIREAGEMESALQEKQLDSGNQELKDCLLSAPSTPKRKRSQGKRKGVQPKKNGSNLEEVDISMAQAAKRRQGPTCCDMNLSGIQYDEQCDYQKMHWLYSPNLQQGGMRYDAICSKVFSGQQHNYVSAFHATCYSSTSQLSANRVLTVEERREGIFQGRQESELNVLSDKIDTPIKKKTTGHARFRNLSSMNKLVEVPEHLTSGYCSKPQQNNKILVDTRVTVSKKKPTKSEKSQTKQKNLLPNLCRFPPSFTGLSPDELWKRRNSIETISELLRLLDINREHSETALVPYTMNSQIVLFGGGAGAIVPVTPVKKPRPRPKVDLDDETDRVWKLLLENINSEGVDGSDEQKAKWWEEERNVFRGRADSFIARMHLVQGDRRFTPWKGSVVDSVVGVFLTQNVSDHLSSSAFMSLASQFPVPFVPSSNFDAGTSSMPSIQITYLDSEETMSSPPDHNHSSVTLKNTQPDEEKDYVPSNETSRSSSEIAISAHESVDKTTDSKEYVDSDRKGSSVEVDKTDEKCRVLNLFPSEDSALTCQHSMVSDAPQNTERAGSSSEIDLEGEYRTSFMKLLQGVQVSLEDSNQVSPNMSPGDCSSEIKGFQSMKEPTKSSVDSSEPGCCSQQDGDVLSCQKPTLKEKGKKVLKEEKKAFDWDCLRREAQARAGIREKTRSTMDTVDWKAIRAADVKEVAETIKSRGMNHKLAERIQGFLDRLVNDHGSIDLEWLRDVPPDKAKEYLLSFNGLGLKSVECVRLLTLHHLAFPVDTNVGRIAVRLGWVPLQPLPESLQLHLLEMYPMLESIQKYLWPRLCKLDQKTLYELHYQMITFGKVFSTKSKPNCNACPMKGECRHFASAFASARLALPSTEKGMGTPDKNPLPLHLPEPFQREQGSEVVQHSEPAKKVTCCEPIIEEPASPEPETAEVSIADIEEAFFEDPEEIPTIRLNMDAFTSNLKKIMEHNKELQDGNMSSALVALTAETASLPMPKLKNISQLRTEHRVYELPDEHPLLAQLEKREPDDPCSYLLAIWTPGETADSIQPSVSTCIFQANGMLCDEETCFSCNSIKETRSQIVRGTILIPCRTAMRGSFPLNGTYFQVNEVFADHASSLNPINVPRELIWELPRRTVYFGTSVPTIFKGLSTEKIQACFWKGYVCVRGFDRKTRGPKPLIARLHFPASKLKGQQANLA
B4: ROS1 C1045S-nLUC (protein, UniProt Q9SJQ6 1-1393)
chain: MEKQRREESSFQQPPWIPQTPMKPFSPICPYTVEDQYHSSQLEERRFVGNKDMSGLDHLSFGDLLALANTASLIFSGQTPIPTRNTEVMQKGTEEVESLSSVSNNVAEQILKTPEKPKRKKHRPKVRREAKPKREPKPRAPRKSVVTDGQESKTPKRKYVRKKVEVSKDQDATPVESSAAVETSTRPKRLCRRVLDFEAENGENQTNGDIREAGEMESALQEKQLDSGNQELKDCLLSAPSTPKRKRSQGKRKGVQPKKNGSNLEEVDISMAQAAKRRQGPTCCDMNLSGIQYDEQCDYQKMHWLYSPNLQQGGMRYDAICSKVFSGQQHNYVSAFHATCYSSTSQLSANRVLTVEERREGIFQGRQESELNVLSDKIDTPIKKKTTGHARFRNLSSMNKLVEVPEHLTSGYCSKPQQNNKILVDTRVTVSKKKPTKSEKSQTKQKNLLPNLCRFPPSFTGLSPDELWKRRNSIETISELLRLLDINREHSETALVPYTMNSQIVLFGGGAGAIVPVTPVKKPRPRPKVDLDDETDRVWKLLLENINSEGVDGSDEQKAKWWEEERNVFRGRADSFIARMHLVQGDRRFTPWKGSVVDSVVGVFLTQNVSDHLSSSAFMSLASQFPVPFVPSSNFDAGTSSMPSIQITYLDSEETMSSPPDHNHSSVTLKNTQPDEEKDYVPSNETSRSSSEIAISAHESVDKTTDSKEYVDSDRKGSSVEVDKTDEKCRVLNLFPSEDSALTCQHSMVSDAPQNTERAGSSSEIDLEGEYRTSFMKLLQGVQVSLEDSNQVSPNMSPGDCSSEIKGFQSMKEPTKSSVDSSEPGCCSQQDGDVLSCQKPTLKEKGKKVLKEEKKAFDWDCLRREAQARAGIREKTRSTMDTVDWKAIRAADVKEVAETIKSRGMNHKLAERIQGFLDRLVNDHGSIDLEWLRDVPPDKAKEYLLSFNGLGLKSVECVRLLTLHHLAFPVDTNVGRIAVRLGWVPLQPLPESLQLHLLEMYPMLESIQKYLWPRLCKLDQKTLYELHYQMITFGKVFCTKSKPNSNACPMKGECRHFASAFASARLALPSTEKGMGTPDKNPLPLHLPEPFQREQGSEVVQHSEPAKKVTCCEPIIEEPASPEPETAEVSIADIEEAFFEDPEEIPTIRLNMDAFTSNLKKIMEHNKELQDGNMSSALVALTAETASLPMPKLKNISQLRTEHRVYELPDEHPLLAQLEKREPDDPCSYLLAIWTPGETADSIQPSVSTCIFQANGMLCDEETCFSCNSIKETRSQIVRGTILIPCRTAMRGSFPLNGTYFQVNEVFADHASSLNPINVPRELIWELPRRTVYFGTSVPTIFKGLSTEKIQACFWKGYVCVRGFDRKTRGPKPLIARLHFPASKLKGQQANLA

molecular target: T1, MET18-cLUC (Arabidopsis); assay: split reporter; firefly luciferase complementation imaging (split-LUC); nLUC and cLUC fusions co-infiltrated into Nicotiana benthamiana leaves, with viral p19

binding, binds:
B1
B2
B3
B4
